Data taken from patent US7824672B2, “Method for coating living cells” (Emory University, priority 2004, dated 2010).
The name of at least one read-out is uncertain.

Assays:
[1] = CD39 ATPase activity kinetics (inorganic phosphate release); type: biochemical; conditions: substrate ATP; vesicles: molar ratio CD39:POPC 1:33,613
Excerpt: (§1) We have expressed and purified human CD39 from Pichia pastoris and confirmed both ecto-ATPase and ecto-ADPase activity. […] Briefly, the plasmid carrying the CD39 human coding sequence was provided by Dr. Simon C. Robson (Harvard Medical School, USA). Polymerase chain reaction (PCR) was utilized to add a Kozak sequence flanked by EcoRI to the […] of CD39 and a FLAG tag flanked by XbaI to the 3′ end of CD39. The construct was harbored in pCR 2.1-TOPO (Invitrogen, San Diego, Calif.) and multiplied in One Shot Top10 (Invitrogen). To express CD39 in yeast, the EcoRI/XbaI digestion product was cloned into pPICZ (Invitrogen) and transformed into Pichia pastoris strain SMD1168 (Invitrogen). The expression construct was confirmed through DNA sequencing analysis. P. pastoris cultures were grown at 30° C. and expression induced for 4 days with 0.5% methanol. Cells were harvested, resuspended in breaking buffer, and cell lysates centrifuged to separate membrane and soluble fractions. […] CD39 was extracted from membrane fractions using 1% Igepal CA-630 and purified on anti-FLAG M2 affinity columns (Sigma, Saint Louis, Mo.). Kinetic parameters were measured for both detergent-solubilized CD39 and for protein reconstituted in POPC lipid vesicles at varying molar ratios of CD39 to lipid (1:85,714, 1:33,613, 1:16,806). […] Inorganic phosphate was measured as described by Ames (116). […]

[2] = CD39 ADPase activity kinetics (inorganic phosphate release); type: biochemical; conditions: substrate ADP; vesicles: molar ratio CD39:POPC 1:33,613
Excerpt: as §1

B1: Free CD39: detergent-solubilized human CD39 expressed in Pichia pastoris, FLAG tagged (protein, UniProt P49961 1-510, looked up)
Ectonucleoside triphosphate …: MEDTKESNVKTFCSKNILAILGFSSIIAVIALLAVGLTQNKALPENVKYGIVLDAGSSHTSLYIYKWPAEKENDTGVVHQVEECRVKGPGISKFVQKVNEIGIYLTDCMERAREVIPRSQHQETPVYLGATAGMRLLRMESEELADRVLDVVERSLSNYPFDFQGARIITGQEEGAYGWITINYLLGKFSQKTRWFSIVPYETNNQETFGALDLGGASTQVTFVPQNQTIESPDNALQFRLYGKDYNVYTHSFLCYGKDQALWQKLAKDIQVASNEILRDPCFHPGYKKVVNVSDLYKTPCTKRFEMTLPFQQFEIQGIGNYQQCHQSILELFNTSYCPYSQCAFNGIFLPPLQGDFGAFSAFYFVMKFLNLTSEKVSQEKVTEMMKKFCAQPWEEIKTSYAGVKEKYLSEYCFSGTYILSLLLQGYHFTADSWEHIHFIGKIQGSDAGWTLGYMLNLTNMIPAEQPLSTPLSHSTYVFLMVLFSLVLFTVAIIGLLIFHKPSYFWKDMV
modifications: FLAG tag
notes: detergent-solubilized human CD39 expressed in Pichia pastoris, FLAG tagged
With B1 the “kcat/Km, ATPase activity” value [1] was 5670 M⁻¹ s⁻¹ and the “kcat/Km, ADPase activity” value [2] was 6500 M⁻¹ s⁻¹.
